Measurements as given in patent US9278925B2, “Substituted 3-(biphenyl-3-yl)-4-hydroxy-8-methoxy-1-azaspiro[4.5]dec-3-en-2-one” (BAYER INTELLECTUAL PROPERTY GMBH, priority 2011, dated 2016).
At least one compound was matched to its structure with a doubt left.

Assay: Membrane affinity logMA (MA-Transil)
Format: physicochemical
Settings: buffer pH 7.4
Description: Assays for Determining Membrane Affinity logMA and Protein Binding to Human Serum Albumin (HSA):
Determination of membrane affinity and protein binding to human serum albumin (HSA) was carried out via Transil technology (literature: A. Loidl-Stahlhofen, A. Eckert, T. Hartmann, M. Schöttner J Pharm Sci 90, 599-606 (2001)). Transil® (commercially available from Sovicell in Leipzig, Germany) are glass beads (diameter 10-12 μm) coated with a double-layer membrane of phosphatidylcholine (MA-Transil) or covalently attached human serum albumin (HSA-Transil).
To determine the logMA and the protein binding constant to HSA, the commercially available TRANSIL Intestinal Absorption & HSA Binding Combined Assay Kit was used. This is a 96-well microtitre plate (96 well-MTP) which is filled with Transil and can be used to determine MA-Transil and HSA-Transil binding of in each case eight active compounds. For each active compound, the Transil plate provides a row of 12 wells. Two wells serve as reference and are only filled with buffer pH 7.4. Five further wells contain MA-Transil in various increasing concentrations, the five remaining wells contain HSA-Transil in various increasing concentrations.
To determine binding of an active compound to Transil, the supernatant of the wells with Transil was quantified against the reference solution without Transil via HPLC-MS coupling (HPLC-MS=high performance liquid chromatography/mass spectrometry).
This is how the individual steps of the assay were carried out:
From the internal substance store, the active compounds were delivered in a 96-well MTP. This plate is referred to as mother plate. […]
Prior to quantification of the active compounds by HPLC-MS, an optimization has to be carried out for each active compound where by way of a single injection daughter ion and optimum electrical voltages are determined. […] This microtitre plate was measured by HPLC-MS using the software Discovery Quant Optimize from AB Sciex. The three pooled microtitre plates were measured by HPLC-MS using the software Discovery Quant Analyze from AB Sciex. […]

Q: With CO[C@]1(C(F)(F)F)CC[C@]2(CC1)NC(=O)C(c1cc(-c3ccc(Cl)c(F)c3)ccc1C)=C2O [Example 1-2, (5r,8r)-3-(4′-Chloro-3′-fluoro-4-methylbiphenyl-3-yl)-4-hydroxy-8-methoxy-8-(trifluoromethyl)-1-azaspiro[4.5]dec-3-en-2-one] as the compound, how does the logMA read?
A: The logMA was 1.8.

Q: Which logMA does the source give for COC[C@]1(OC)CC[C@@]2(CC1)NC(=O)C(c1cc(-c3ccc(Cl)c(F)c3)ccc1C)=C2O [Example 1-4, (5r,8r)-3-(4′-Chloro-3′-fluoro-4-methylbiphenyl-3-yl)-4-hydroxy-8-methoxy-8-(methoxymethyl)-1-azaspiro[4.5]dec-3-en-2-one] here?
A: Its logMA is 1.14.

Q: For CO[C@]1(C(F)(F)F)CC[C@]2(CC1)NC(=O)C(c1cc(-c3ccc(Cl)cc3)ccc1C)=C2O [Example 1-1, (5r,8r)-3-(4′-Chloro-4-methylbiphenyl-3-yl)-4-hydroxy-8-methoxy-8-(trifluoromethyl)-1-azaspiro[4.5]dec-3-en-2-one], which logMA is on record?
A: Its logMA is 1.78.
